Taken from: PubChem BioAssay AID1259424 (University of Nebraska Medical Center, 2018)

Test: 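Find knockdowns that reproduce the expression shifts seen after KSR1 loss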 (primary screen)
Cells: human HCT116 colon cancer cells
Reagent: siRNA pool against human genes, 50 nM
Measurement: 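Six signature mRNAs by branched-DNA multiplex assay, scaled to two housekeeping genes and non-targeting median, log2; matched to mean KSR1 knockdown profile by Pearson correlation and euclidean distance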
Direction: mean correlation with KSR1 profile: higher = expression change more like KSR1 knockdown; mean distance from KSR1 profile: higher = expression change less like KSR1 knockdown
Shown is one part, drawn at random, of about 14,000 reagents tested. 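Higher correlation or smaller distance means closer resemblance to KSR1 loss; control wells, including KSR1 knockdowns, recur on many plates.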 Not all columns of the deposit are shown. Not stated in the record: the time to read-out.

no.	gene knocked down	mean correlation with KSR1 profile	mean distance from KSR1 profile
1	DOK3	0.0924	2.11
2	ESRP1	0.136	2.2
3	FCAMR	0.779	2.04
4	C9	-0.389	3.6
5	REXO1	-0.341	1.89
6	CAMKK2	0.271	2.26
7	STAM	0.536	3.64
8	TYMP	-0.887	1.87
9	IL6	-0.237	1.05
10	LY6H	0.755	1.95
11	TXNDC9	0.211	2.48
12	SLC5A4	-0.199	1.49
13	KLF8	-0.304	2.23
14	NYX	-0.762	2.67
15	MTNAP1	-0.577	2.3
16	EIF1	-0.345	3.1
17	AGPAT1	0.449	2.13
18	USP33	-0.0796	1.35
19	MFAP1	-0.41	3.61
20	PCSK4	0.452	0.961
21	PRX	0.693	1.42
22	TENT5A	-0.572	2.59
23	HSD17B11	0.696	5.77
24	CALN1	0.00526	2.05
25	ARRB1	0.626	1.21
26	MPP1	0.102	2.06
27	PRDM10	0.144	2.62
28	TROAP	0.423	5.08
29	OR2K2	-0.509	2.67
30	TMEM38B	-0.617	6.86
31	CYP21A2	-0.078	3.05
32	ACP2	-0.373	3.54
33	DLEU1	-0.687	2.64
34	GCGR	0.778	1.17
